Among the data in publication PMC5645129 are binding values, retold here.

Amino acid sequences for entries named in this document (tags omitted).
UniProt Q8JPY0: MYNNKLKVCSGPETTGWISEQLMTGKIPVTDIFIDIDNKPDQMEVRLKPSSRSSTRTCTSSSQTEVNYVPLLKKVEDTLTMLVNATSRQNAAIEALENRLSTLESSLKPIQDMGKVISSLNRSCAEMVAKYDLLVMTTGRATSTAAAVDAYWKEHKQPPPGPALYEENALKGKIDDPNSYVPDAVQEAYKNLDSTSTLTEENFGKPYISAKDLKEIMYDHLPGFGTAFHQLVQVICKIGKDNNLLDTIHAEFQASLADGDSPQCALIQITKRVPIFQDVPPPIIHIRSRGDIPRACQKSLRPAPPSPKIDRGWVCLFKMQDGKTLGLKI
UniProt Q05127: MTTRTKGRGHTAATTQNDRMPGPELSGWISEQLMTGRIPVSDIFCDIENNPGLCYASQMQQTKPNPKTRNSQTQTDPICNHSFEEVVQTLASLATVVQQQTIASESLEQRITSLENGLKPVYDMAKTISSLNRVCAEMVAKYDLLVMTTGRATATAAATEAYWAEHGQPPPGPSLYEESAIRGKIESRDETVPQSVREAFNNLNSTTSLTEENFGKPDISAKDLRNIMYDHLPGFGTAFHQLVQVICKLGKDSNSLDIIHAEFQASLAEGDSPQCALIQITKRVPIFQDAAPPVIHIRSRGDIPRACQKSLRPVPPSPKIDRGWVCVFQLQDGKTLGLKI
UniProt Q8JPY1: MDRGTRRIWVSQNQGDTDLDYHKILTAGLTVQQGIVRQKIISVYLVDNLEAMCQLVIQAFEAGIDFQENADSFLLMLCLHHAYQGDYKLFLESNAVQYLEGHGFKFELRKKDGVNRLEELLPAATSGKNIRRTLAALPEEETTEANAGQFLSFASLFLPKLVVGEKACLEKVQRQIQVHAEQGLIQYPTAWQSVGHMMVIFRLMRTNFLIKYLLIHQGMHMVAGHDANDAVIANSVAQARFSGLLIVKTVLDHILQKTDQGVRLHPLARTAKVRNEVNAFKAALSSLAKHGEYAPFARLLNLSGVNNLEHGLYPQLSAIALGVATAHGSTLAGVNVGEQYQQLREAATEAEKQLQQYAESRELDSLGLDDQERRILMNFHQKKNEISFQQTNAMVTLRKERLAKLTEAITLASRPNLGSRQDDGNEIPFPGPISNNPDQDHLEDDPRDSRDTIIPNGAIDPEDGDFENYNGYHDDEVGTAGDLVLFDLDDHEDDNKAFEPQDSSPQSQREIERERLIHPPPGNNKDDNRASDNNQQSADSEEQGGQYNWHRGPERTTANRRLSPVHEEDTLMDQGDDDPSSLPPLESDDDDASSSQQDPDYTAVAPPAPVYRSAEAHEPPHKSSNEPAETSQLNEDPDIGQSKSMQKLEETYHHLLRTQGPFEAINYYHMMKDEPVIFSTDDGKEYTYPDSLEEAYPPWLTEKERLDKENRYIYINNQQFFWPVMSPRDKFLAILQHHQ

No constants are given. Whether binding was seen depends on the method and setting. Binding seen in cells or lysates may run through a third protein. Some entries that bind do so weakly or less than the wild type.

Assay [1] has as its target VP35 of Reston virus (RESTV), isolate Pennsylvania (Reston virus (RESTV), isolate Pennsylvania (species Reston ebolavirus)) (UniProt Q8JPY0). Put plainly: co-IP.
For assay [2], the target named is VP35 of Ebola virus (EBOV), isolate Mayinga (Ebola virus (EBOV), isolate Mayinga (species Zaire ebolavirus)) (UniProt Q05127). In words: co-IP.

Take “nucleoprotein (NP) of Reston virus (RESTV), isolate Pennsylvania (from UniProt Q8JPY1 1-739)”: the binding entry in assay [1] is recorded as “binds”.
Same read-out and setting: next, “VP35 of Reston virus (RESTV), isolate Pennsylvania (from UniProt Q8JPY0 1-329)”: “binds”.
Consider “VP35 of Ebola virus (EBOV), isolate Mayinga (from UniProt Q05127 1-340)”, for which the binding entry in assay [2] is “binds”.
